Reference: patent US6369226B1, “Substituted benzamide inhibitors of rhinovirus 3C protease” (Agouron Pharmaceuticals, Inc., priority 1999, dated 2002)
At least one compound was matched to its structure with a doubt left.

Protein sequences, listed by entry. Tags and fused reporters are not part of them. Residues count along the entry.
UniProt P03303, 1538-1719: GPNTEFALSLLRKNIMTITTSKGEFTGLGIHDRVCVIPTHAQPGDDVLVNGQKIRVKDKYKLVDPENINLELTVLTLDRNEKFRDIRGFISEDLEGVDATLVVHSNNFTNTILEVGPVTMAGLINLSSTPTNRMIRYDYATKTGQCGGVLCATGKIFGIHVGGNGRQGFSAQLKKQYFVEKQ

Key:
HRV-14 3CP = biological target: T1, HRV-14 3CP (Human rhinovirus 14, UniProt P03303); test: 3CP enzyme inhibition assay; assay type: biochemical; conditions: irreversible inhibitor
T1 construct: The 2A and 3C protease (3CP) process this polyprotein into its functional viral proteins in HRV
Excerpt: 3CP Inhibition Assays and Antiviral Assays The details of the 3CP enzyme assays used and the antiviral assays used are outlined in Dragovich, P. S., Webber, S. E, Babine, R. E., Fuhrman, S. A., Patick, A. K., Matthews, D. A., Lee, C. A., Reich, S. H., Prins, T. J., Marakovits, J. T., Littlefield, E. S., Zhou, R., Tikhe, J., Ford, C. E., Wallace, M. B., Meador, III, J. W., Ferre, R., Brown, E. L., Binford, S. L, Harr, , J. E. V., DeLisle, D. M. and Worland, S. T. Structure-Based Design, Synthesis, and Biological Evaluation of Irreversible Human Rhinovirus 3C Protease Inhibitors. 1. Michael Acceptor Structure-Activity Studies J. Med. Chem. 1998,41, 2806, the disclosure of which is incorporated by reference herein.

3CP = biological target: T2, 3CP (Human rhinovirus 14, UniProt P03303); test: proteolytic processing by 3CP in the cytopathic effect assay, polyacrylamide gel electrophoresis; assay type: cell-based; conditions: PAGE
T2 construct: The 2A and 3C protease (3CP) process this polyprotein into its functional viral proteins in HRV

CCOC(=O)/C=C/c1cccc(C(N)=O)c1 [Compound 1, 3-(3-Carbamoylphenyl)-acrylic acid ethyl ester]
inactivation constant (HRV-14 3CP): 52 s^−1M^−1 | proteolytic fragments from 3CP processing (3CP): dose-dependent reduction in proteolytic fragments
